Source: article PMC10404244
Results are given in words; binding and its absence hold for the method and conditions named. Some binding calls cover weakened binding; strength is not graded here.

Amino acid sequences for entries named in this document (tags omitted).
UniProt Q9NQT8: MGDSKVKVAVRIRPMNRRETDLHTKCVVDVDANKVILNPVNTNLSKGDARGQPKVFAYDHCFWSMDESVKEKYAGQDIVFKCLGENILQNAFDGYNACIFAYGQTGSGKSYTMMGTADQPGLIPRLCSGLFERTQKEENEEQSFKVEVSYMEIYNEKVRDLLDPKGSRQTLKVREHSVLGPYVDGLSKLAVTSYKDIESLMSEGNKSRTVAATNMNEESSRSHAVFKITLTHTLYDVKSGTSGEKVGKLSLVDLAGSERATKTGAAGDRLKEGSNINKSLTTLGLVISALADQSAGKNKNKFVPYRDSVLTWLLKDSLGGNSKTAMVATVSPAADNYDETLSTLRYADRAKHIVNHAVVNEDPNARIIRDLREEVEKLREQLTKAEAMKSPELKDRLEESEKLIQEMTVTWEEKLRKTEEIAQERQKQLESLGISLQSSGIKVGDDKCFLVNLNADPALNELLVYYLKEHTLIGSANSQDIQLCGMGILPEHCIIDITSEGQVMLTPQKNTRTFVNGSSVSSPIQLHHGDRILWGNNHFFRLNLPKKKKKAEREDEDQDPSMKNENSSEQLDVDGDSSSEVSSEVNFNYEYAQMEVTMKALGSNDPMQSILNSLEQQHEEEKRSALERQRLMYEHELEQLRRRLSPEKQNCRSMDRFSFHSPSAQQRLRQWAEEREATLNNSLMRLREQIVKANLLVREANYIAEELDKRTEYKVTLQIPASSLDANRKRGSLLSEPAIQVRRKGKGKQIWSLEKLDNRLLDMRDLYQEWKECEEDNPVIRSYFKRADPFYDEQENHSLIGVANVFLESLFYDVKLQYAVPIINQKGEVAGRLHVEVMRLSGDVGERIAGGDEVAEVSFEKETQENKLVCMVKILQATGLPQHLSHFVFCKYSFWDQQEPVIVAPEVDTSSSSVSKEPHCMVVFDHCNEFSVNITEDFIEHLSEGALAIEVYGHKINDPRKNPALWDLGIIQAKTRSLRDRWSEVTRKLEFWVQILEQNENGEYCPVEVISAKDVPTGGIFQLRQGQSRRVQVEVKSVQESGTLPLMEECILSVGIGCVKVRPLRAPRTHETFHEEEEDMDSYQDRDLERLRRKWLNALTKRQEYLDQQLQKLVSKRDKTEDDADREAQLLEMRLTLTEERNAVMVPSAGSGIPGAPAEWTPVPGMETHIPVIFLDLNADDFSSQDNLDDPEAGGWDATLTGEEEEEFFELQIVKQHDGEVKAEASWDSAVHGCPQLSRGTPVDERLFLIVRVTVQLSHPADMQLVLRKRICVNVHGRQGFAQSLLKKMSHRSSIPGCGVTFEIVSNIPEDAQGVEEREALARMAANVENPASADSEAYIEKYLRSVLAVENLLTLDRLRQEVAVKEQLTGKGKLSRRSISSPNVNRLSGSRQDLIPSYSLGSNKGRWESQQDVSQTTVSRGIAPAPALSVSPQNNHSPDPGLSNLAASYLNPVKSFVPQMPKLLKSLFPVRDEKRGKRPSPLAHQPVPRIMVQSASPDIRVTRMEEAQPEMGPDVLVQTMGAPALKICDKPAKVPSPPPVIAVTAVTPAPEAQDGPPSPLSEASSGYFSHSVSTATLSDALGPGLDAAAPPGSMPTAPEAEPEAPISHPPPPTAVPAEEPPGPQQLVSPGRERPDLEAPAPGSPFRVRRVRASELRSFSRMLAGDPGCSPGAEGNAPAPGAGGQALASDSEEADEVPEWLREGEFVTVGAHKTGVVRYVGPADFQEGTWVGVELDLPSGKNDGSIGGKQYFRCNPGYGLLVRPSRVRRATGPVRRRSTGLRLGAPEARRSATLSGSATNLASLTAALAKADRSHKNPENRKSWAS

Biological target: full-length human KIF13B (wild type), C-terminal sfGFP-StrepII (human) (UniProt Q9NQT8)
Experiment: mass photometry; 5, 25 and 100 nM protein in HP buffer (90 mM HEPES, 10 mM PIPES, 50 mM K-acetate, 2 mM Mg-acetate, 1 mM EGTA, 10% glycerol, pH 7.0), room temperature; result told over the whole range; monomer to dimer; both purified

full-length human KIF13B (wild type), C-terminal sfGFP-StrepII (from UniProt Q9NQT8 1-1826)
binding: binds weakly
